Laboratory results reported in the supplement of paper PMC10849652.
This is one part of the list.

By UniProt entry, the sequences of proteins in these tests, tags left out. Where a name states a change or a piece, a line headed by the entry shows the natural chain unless it says otherwise.
UniProt Q2NKX9: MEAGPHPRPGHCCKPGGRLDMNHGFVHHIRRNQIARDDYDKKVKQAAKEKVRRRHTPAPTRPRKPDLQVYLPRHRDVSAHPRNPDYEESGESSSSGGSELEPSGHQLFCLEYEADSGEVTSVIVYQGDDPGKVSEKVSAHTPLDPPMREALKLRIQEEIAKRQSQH
UniProt Q8N5S9: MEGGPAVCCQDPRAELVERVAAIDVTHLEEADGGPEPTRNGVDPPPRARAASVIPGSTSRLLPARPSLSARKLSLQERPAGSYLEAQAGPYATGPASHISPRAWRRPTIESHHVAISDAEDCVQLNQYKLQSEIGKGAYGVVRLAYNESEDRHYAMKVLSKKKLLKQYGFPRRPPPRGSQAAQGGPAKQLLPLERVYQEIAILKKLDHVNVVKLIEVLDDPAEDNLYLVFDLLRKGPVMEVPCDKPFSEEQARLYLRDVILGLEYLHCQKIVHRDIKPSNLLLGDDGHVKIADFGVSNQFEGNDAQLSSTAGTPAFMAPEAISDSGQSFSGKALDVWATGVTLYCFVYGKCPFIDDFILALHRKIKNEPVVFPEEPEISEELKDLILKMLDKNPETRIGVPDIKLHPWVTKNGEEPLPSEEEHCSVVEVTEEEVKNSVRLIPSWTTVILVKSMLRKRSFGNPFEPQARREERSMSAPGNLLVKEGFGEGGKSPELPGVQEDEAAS
UniProt Q86VP6: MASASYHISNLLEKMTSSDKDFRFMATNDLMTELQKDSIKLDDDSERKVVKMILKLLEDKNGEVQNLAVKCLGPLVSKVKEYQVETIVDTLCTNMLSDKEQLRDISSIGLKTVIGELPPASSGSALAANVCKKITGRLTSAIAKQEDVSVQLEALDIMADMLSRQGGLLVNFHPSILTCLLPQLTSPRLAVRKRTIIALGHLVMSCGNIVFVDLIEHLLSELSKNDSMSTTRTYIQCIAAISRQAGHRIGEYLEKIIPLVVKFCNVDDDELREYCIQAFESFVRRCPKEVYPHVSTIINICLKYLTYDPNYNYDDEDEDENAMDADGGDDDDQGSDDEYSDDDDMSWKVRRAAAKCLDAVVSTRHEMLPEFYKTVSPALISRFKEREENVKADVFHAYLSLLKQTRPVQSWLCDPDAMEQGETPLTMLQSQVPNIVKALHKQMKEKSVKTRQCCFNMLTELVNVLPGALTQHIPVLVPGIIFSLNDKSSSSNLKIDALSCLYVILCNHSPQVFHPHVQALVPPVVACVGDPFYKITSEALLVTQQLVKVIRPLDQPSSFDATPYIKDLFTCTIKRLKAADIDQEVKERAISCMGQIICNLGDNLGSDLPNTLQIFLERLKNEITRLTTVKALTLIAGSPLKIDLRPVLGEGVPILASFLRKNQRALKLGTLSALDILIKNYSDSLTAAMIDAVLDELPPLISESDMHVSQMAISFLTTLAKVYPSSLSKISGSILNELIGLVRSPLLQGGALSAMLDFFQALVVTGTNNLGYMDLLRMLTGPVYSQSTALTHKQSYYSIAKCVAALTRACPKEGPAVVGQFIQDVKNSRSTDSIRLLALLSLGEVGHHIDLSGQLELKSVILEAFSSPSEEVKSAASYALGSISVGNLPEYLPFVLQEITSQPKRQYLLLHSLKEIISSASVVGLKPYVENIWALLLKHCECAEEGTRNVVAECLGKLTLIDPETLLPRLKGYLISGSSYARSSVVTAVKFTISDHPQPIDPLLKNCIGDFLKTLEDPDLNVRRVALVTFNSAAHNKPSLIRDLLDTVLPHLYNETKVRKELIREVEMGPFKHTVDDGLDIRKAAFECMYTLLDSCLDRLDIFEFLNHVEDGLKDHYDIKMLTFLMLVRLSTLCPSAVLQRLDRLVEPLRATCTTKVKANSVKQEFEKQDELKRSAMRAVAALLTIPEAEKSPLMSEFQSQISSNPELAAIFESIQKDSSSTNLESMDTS
UniProt Q5JPI3: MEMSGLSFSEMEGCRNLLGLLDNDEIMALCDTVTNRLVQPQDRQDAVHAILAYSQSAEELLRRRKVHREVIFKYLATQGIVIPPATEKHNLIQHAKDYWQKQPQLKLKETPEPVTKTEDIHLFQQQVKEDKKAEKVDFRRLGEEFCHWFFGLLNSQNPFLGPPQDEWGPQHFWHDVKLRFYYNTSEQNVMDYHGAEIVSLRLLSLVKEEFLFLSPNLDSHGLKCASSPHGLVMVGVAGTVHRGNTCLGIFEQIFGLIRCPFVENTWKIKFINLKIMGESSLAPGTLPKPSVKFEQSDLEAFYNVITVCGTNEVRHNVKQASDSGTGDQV
UniProt P07384: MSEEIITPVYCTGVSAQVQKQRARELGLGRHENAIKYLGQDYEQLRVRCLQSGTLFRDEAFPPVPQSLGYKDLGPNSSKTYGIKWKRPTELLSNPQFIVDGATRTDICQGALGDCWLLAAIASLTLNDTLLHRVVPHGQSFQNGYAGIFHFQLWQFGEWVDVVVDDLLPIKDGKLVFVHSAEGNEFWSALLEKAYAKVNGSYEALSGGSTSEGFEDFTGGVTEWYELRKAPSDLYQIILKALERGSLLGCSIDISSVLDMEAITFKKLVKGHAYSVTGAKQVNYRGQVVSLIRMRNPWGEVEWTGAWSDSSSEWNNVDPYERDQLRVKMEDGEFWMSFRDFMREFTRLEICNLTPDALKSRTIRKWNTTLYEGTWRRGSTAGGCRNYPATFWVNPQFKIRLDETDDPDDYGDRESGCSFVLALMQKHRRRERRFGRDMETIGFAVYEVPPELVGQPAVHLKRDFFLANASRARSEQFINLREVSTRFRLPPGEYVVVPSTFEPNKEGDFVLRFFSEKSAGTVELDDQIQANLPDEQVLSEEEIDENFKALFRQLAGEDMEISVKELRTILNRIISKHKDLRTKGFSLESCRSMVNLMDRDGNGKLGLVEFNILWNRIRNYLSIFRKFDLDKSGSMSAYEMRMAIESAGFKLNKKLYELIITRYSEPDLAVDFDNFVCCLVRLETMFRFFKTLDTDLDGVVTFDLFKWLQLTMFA
UniProt Q6UWU4: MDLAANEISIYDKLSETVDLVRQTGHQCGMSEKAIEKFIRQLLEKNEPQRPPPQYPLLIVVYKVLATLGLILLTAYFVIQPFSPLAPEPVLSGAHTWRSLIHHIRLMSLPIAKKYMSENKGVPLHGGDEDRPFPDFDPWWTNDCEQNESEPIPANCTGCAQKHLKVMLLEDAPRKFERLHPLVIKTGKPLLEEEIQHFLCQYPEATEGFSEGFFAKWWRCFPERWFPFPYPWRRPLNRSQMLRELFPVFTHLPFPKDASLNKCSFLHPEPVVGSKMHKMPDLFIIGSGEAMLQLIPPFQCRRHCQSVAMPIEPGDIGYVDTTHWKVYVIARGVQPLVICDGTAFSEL
UniProt P49069: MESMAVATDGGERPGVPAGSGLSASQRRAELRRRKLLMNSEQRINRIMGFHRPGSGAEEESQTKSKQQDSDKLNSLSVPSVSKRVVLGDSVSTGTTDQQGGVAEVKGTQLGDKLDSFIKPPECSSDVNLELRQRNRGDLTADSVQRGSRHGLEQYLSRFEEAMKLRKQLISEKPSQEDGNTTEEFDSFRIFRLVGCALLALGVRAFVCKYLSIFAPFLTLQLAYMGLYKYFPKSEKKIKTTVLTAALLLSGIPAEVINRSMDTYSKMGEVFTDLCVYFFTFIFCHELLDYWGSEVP
UniProt Q6ZSJ8: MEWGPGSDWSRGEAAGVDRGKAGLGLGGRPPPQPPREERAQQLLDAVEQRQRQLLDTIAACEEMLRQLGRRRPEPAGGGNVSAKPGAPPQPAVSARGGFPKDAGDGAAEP
UniProt Q86YS7: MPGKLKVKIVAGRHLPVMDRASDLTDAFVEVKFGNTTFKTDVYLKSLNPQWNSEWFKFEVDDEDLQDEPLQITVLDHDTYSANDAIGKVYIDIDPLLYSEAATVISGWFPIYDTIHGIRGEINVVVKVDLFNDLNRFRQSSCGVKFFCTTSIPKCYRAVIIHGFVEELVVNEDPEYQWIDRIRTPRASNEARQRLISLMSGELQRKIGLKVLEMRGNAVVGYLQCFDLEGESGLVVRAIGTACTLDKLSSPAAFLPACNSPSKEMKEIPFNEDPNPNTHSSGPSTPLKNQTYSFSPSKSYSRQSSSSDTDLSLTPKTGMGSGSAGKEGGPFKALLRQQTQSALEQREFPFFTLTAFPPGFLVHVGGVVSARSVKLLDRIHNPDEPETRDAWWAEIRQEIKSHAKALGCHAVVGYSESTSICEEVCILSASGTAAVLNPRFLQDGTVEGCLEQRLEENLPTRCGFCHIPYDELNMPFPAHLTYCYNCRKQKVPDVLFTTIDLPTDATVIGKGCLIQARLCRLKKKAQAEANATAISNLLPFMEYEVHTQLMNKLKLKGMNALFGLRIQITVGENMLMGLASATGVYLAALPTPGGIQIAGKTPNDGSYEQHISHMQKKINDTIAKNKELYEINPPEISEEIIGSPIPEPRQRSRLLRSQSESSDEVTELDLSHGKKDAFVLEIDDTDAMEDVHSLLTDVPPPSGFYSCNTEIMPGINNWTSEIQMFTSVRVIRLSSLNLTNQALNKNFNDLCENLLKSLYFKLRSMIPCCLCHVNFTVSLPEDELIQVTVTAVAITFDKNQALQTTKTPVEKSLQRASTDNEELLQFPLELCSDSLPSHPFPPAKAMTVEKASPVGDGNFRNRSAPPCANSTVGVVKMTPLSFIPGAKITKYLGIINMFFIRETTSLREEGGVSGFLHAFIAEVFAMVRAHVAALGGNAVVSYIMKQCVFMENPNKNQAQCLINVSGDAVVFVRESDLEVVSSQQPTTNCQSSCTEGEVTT
UniProt Q96RR4, whole entry, looked up: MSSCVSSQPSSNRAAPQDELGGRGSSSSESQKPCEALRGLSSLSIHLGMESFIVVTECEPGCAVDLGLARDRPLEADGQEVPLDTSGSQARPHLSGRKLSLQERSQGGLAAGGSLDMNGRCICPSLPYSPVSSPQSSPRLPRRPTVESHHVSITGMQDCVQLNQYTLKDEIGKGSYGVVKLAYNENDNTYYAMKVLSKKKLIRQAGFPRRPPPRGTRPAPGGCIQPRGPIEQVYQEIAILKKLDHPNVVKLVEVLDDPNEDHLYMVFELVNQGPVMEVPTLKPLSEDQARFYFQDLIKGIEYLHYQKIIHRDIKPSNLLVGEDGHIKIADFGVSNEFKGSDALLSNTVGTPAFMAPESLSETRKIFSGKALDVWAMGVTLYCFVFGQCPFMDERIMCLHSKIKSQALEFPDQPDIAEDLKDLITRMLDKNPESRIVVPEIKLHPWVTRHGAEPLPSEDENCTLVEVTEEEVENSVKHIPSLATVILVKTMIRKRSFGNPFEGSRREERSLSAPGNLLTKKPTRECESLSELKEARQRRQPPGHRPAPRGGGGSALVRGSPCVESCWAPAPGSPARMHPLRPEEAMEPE
UniProt Q49AR2: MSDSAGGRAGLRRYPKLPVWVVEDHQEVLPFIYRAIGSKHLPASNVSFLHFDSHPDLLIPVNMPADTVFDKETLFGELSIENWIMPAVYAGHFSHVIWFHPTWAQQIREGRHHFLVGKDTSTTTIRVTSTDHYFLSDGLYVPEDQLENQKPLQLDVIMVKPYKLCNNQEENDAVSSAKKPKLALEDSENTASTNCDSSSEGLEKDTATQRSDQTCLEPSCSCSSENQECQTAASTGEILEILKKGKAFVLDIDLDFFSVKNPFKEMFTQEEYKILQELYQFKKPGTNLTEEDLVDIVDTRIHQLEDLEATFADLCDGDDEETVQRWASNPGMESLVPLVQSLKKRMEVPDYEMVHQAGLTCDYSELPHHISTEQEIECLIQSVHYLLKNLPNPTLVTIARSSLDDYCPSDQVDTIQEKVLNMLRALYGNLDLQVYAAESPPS
UniProt Q8N5I9: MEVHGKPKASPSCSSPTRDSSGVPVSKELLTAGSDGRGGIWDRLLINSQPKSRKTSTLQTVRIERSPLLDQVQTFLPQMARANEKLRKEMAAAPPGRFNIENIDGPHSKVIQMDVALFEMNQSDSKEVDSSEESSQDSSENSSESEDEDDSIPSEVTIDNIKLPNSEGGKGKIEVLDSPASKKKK
UniProt Q8N6N3: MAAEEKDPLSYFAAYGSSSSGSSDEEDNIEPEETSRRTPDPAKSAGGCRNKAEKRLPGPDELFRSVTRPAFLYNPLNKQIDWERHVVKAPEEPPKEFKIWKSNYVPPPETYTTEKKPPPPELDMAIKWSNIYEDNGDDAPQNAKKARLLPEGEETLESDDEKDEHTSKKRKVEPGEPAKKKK
UniProt O43709: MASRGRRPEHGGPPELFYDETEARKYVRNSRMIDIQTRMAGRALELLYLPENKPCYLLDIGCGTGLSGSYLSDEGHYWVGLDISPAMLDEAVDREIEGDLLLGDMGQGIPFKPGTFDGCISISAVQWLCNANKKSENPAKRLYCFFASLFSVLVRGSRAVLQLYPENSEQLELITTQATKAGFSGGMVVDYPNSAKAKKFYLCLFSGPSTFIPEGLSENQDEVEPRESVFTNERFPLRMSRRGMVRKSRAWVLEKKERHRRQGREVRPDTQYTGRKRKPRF

Key:
Assay in all cases: log2 fold change, soluble protein after heating vs DMSO (PISA); higher = thermal stabilisation; K562 lysate, 10 uM; active = over 0.2 and 3.5 SD of the protein, either way, in both replicates (recomputed)
[1] = compound: CCCS(=O)(=O)Nc1ccc(F)c(C(=O)c2c[nH]c3ncc(-c4ccc(Cl)cc4)cc23)c1F [vemurafenib]
Summary of the method: (§1)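 The values are log-two fold changes in thermal stability compared with solvent controls and come from duplicates. They were obtained by TMTpro 16plex LC-MS/MS, with channel sums equalised, on the supernatant after 21,000xg for 90 min. That supernatant came from crude K562 extract at 1 mg/mL protein treated with 10 μM compound for 30 min, heated for 3 min across 48°C-58°C, pooled and brought to 0.5% NP-40 at 4°C.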

[2] = compound: CCCS(=O)(=O)Nc1ccc(F)c(C(=O)c2c[nH]c3ncc(Cl)cc23)c1F
Summary of the method: as §1

[3] = compound: CCN(CCCOc1ccc2c(Nc3cc(CC(=O)Nc4cccc(F)c4)[nH]n3)ncnc2c1)CCOP(=O)(O)O [barasertib]
Summary of the method: as §1

[4] = compound: CC[C@@H]1C(=O)N(C)c2cnc(Nc3ccc(C(=O)NC4CCN(C)CC4)cc3OC)nc2N1C1CCCC1
Summary of the method: as §1

[5] = compound: CC[C@@H]1C(=O)N(C)c2cnc(Nc3ccc(C(=O)N[C@H]4CC[C@H](N5CCN(CC6CC6)CC5)CC4)cc3OC)nc2N1C(C)C [volasertib]
Summary of the method: as §1

[6] = compound: CCn1c(C(=O)N(C2CC2)C2CC2)cc2c3c(ncn3C)c(Nc3cc(C)n(C)n3)nc21
Summary of the method: as §1

[7] = compound: CCn1cc(-c2ccnc3[nH]c(-c4cccc(CN(C)C)c4)cc23)c(-c2ccc(NC(=O)N(C)C)cc2)n1
Summary of the method: as §1

[8] = compound: CN1CCC(CNc2ccc3ncc(-c4cccc(OC(F)(F)F)c4)n3n2)CC1
Summary of the method: as §1

[9] = compound: CN1CCN(CCOc2cc(OC3CCOCC3)c3c(Nc4c(Cl)ccc5c4OCO5)ncnc3c2)CC1 [saracatinib]
Summary of the method: as §1

[10] = compound: CN1CCN(c2nc(C3=C(c4c[nH]c5ccccc45)C(=O)NC3=O)c3ccccc3n2)CC1 [sotrastaurin]
Summary of the method: as §1

[11] = compound: CN1CC[C@H](c2c(O)cc(O)c3c(=O)cc(-c4ccccc4Cl)oc23)[C@H](O)C1 [alvocidib]
Summary of the method: as §1

[12] = compound: CN1CCc2c(c3ccccc3n2Cc2ccc(C(=O)NO)cc2)C1 [Tubastatin A]
Summary of the method: as §1

[13] = compound: CNC(=O)C1=CC=CC=C1NC2=NC(=NC=C2Cl)NC3=C(C=C(C=C3)N4CCOCC4)OC
Summary of the method: as §1

[14] = compound: CNC(=O)c1ccc(Nc2ncc(C(F)(F)F)c(NCc3nccnc3N(C)S(C)(=O)=O)n2)cc1 [defactinib]
Summary of the method: as §1

[15] = compound: CNc1nc(-c2ccc3c(N)n[nH]c3c2)cc(N2C[C@@H](C(=O)NC3CCCCC3)CC[C@H]2C)n1
Summary of the method: as §1

[16] = compound: COC(=O)N[C@@H](C)CNc1nccc(-c2cn(C(C)C)nc2-c2cc(Cl)cc(NS(C)(=O)=O)c2F)n1 [encorafenib]
Summary of the method: as §1

[17] = compound: COC(=O)[C@H](CCSC)NC(=O)C1=C(C=C(C=C1)NC[C@H](CS)N)C2=CC=CC=C2
Summary of the method: as §1

[18] = compound: COc1cc(Nc2ncc3c(n2)-c2ccc(Cl)cc2C(c2c(F)cccc2OC)=NC3)ccc1C(=O)O [alisertib]
Summary of the method: as §1

[19] = compound: COc1cc2nc(-c3cc(F)ccc3O)nc(N[C@@H]3CNC[C@H]3C(C)(C)O)c2cc1OC
Summary of the method: as §1

[20] = compound: COc1cc2ncnc(Nc3ccc(F)c(Cl)c3)c2cc1OCCCN1CCOCC1 [gefitinib]
Summary of the method: as §1

Target | log2 fold change [1] | log2 fold change [2] | log2 fold change [3] | log2 fold change [4] | log2 fold change [5] | log2 fold change [6] | log2 fold change [7] | log2 fold change [8] | log2 fold change [9] | log2 fold change [10] | log2 fold change [11] | log2 fold change [12] | log2 fold change [13] | log2 fold change [14] | log2 fold change [15] | log2 fold change [16] | log2 fold change [17] | log2 fold change [18] | log2 fold change [19] | log2 fold change [20]
C2orf68 (UniProt Q2NKX9) | inactive: -0.014 | inactive: 0.048 | inactive: -0.018 | inactive: 0.038 | inactive: 0.007 | inactive: 0.069 | inactive: -0.016 | inactive: -0.012 | inactive: 0.057 | inactive: 0.081 | inactive: 0.022 | inactive: -0.044 | inactive: 0.006 | inactive: 0.027 | inactive: -0.02 | inactive: 0.039 | inactive: -0.059 | inactive: -0.082 | inactive: 0.014 | inactive: 0.022
CAMKK1 isoform 2 (UniProt Q8N5S9) | inactive: -0.041 | inactive: -0.062 | inactive: 0.11 | inactive: 0.103 | inactive: 0.136 | inactive: 0.115 | inactive: -0.204 | inactive: 0.041 | inactive: -0.063 | inactive: -0.013 | inactive: 0.088 | inactive: -0.167 | active: 0.305 | inactive: 0.051 | inactive: -0.118 | inactive: 0.014 | inactive: 0.126 | inactive: -0.033 | inactive: -0.048 | inactive: 0.03
CAND1 (UniProt Q86VP6) | inactive: 0.012 | inactive: 0 | inactive: -0.016 | inactive: 0.025 | inactive: 0.018 | inactive: -0.021 | inactive: -0.106 | inactive: 0.08 | inactive: -0.019 | inactive: -0.011 | inactive: -0.041 | inactive: 0.031 | inactive: -0.008 | inactive: -0.005 | inactive: 0.002 | inactive: 0 | inactive: -0.04 | inactive: -0.015 | inactive: 0.015 | inactive: -0.013
C3orf38 (UniProt Q5JPI3) | inactive: 0.055 | inactive: -0.006 | inactive: 0.001 | inactive: 0.089 | inactive: -0.027 | inactive: -0.036 | inactive: 0.015 | inactive: 0.022 | inactive: -0.018 | inactive: 0.06 | inactive: -0.076 | inactive: 0.01 | inactive: 0.05 | inactive: 0.038 | inactive: 0.033 | inactive: 0.03 | inactive: -0.038 | inactive: -0.013 | inactive: 0.05 | inactive: -0.041
CAPN1 (UniProt P07384) | inactive: 0.008 | inactive: 0.001 | inactive: -0.028 | inactive: 0.034 | inactive: 0.03 | inactive: -0.011 | inactive: 0.027 | inactive: 0.006 | inactive: -0.026 | inactive: 0.023 | inactive: -0.041 | inactive: 0.007 | inactive: 0.002 | inactive: 0.032 | inactive: 0.011 | inactive: 0.024 | inactive: -0.103 | inactive: 0.019 | inactive: -0.012 | inactive: 0
C3 (UniProt P01024) | inactive: -0.02 | inactive: 0.042 | inactive: 0.059 | inactive: 0.07 | inactive: 0.009 | inactive: -0.096 | inactive: -0.134 | inactive: 0.039 | inactive: 0.001 | inactive: 0.014 | inactive: -0.027 | inactive: 0.051 | inactive: 0.041 | inactive: 0.01 | inactive: 0.008 | inactive: 0 | inactive: 0.054 | inactive: -0.031 | inactive: -0.005 | inactive: 0.05
C6orf89 isoform 2 (UniProt Q6UWU4) | inactive: 0.034 | inactive: -0.044 | inactive: 0.036 | inactive: 0.14 | inactive: 0.022 | inactive: 0.062 | inactive: 0.021 | inactive: 0.009 | inactive: -0.017 | inactive: 0.048 | inactive: 0.023 | inactive: 0.002 | inactive: 0.053 | inactive: 0.008 | inactive: 0.121 | inactive: 0.029 | inactive: -0.15 | inactive: -0.061 | inactive: -0.047 | inactive: 0.035
CAMLG (UniProt P49069) | inactive: -0.027 | inactive: 0 | inactive: -0.021 | inactive: 0.026 | inactive: 0.002 | inactive: -0.089 | active: 0.257 | inactive: -0.04 | inactive: -0.026 | inactive: -0.002 | inactive: 0.051 | inactive: -0.037 | inactive: 0.044 | inactive: 0.067 | inactive: -0.012 | inactive: 0.09 | inactive: -0.13 | inactive: 0.136 | inactive: 0.006 | inactive: 0.028
C1orf122 (UniProt Q6ZSJ8) | inactive: 0.006 | inactive: 0.005 | inactive: -0.158 | inactive: 0.148 | inactive: 0.037 | inactive: 0.033 | inactive: -0.028 | inactive: 0.038 | inactive: 0.005 | inactive: -0.051 | inactive: 0.023 | inactive: 0.017 | inactive: 0.034 | inactive: 0.089 | inactive: 0.062 | inactive: 0.115 | inactive: -0.028 | inactive: -0.033 | inactive: -0.02 | inactive: 0.004
CAPZA2 (UniProt P47755) | inactive: -0.032 | inactive: 0.007 | inactive: -0.02 | inactive: -0.053 | inactive: -0.017 | inactive: -0.013 | inactive: 0.024 | inactive: -0.015 | inactive: 0.001 | inactive: -0.011 | inactive: 0.036 | inactive: 0.011 | inactive: -0.009 | inactive: 0.006 | inactive: 0.015 | inactive: -0.03 | inactive: -0.019 | inactive: -0.001 | inactive: -0.011 | inactive: 0.003
C2CD5 isoform 3 (UniProt Q86YS7) | inactive: 0.068 | inactive: 0.022 | inactive: 0.049 | inactive: 0.062 | inactive: -0.025 | inactive: -0.069 | active: -0.309 | inactive: 0.162 | inactive: 0.058 | inactive: -0.023 | inactive: -0.157 | inactive: 0.006 | inactive: -0.003 | inactive: -0.002 | inactive: 0.01 | inactive: 0.054 | inactive: -0.028 | inactive: -0.016 | inactive: 0.016 | inactive: 0.054
CAMKK2 (UniProt Q96RR4) | inactive: -0.07 | inactive: -0.026 | inactive: 0.003 | inactive: 0.176 | inactive: 0.075 | inactive: 0.057 | inactive: 0.003 | inactive: 0.002 | inactive: -0.017 | inactive: 0.069 | inactive: -0.018 | inactive: -0.123 | active: 0.277 | inactive: 0.059 | inactive: -0.113 | inactive: -0.013 | inactive: 0.018 | inactive: -0.01 | inactive: 0.019 | inactive: 0.021
C5orf22 (UniProt Q49AR2) | inactive: 0.007 | inactive: -0.028 | inactive: -0.043 | inactive: 0.024 | inactive: -0.003 | inactive: -0.052 | inactive: -0.101 | inactive: 0.007 | inactive: 0.001 | inactive: 0 | inactive: 0.003 | inactive: 0.011 | inactive: -0.005 | inactive: -0.012 | inactive: -0.008 | inactive: -0.005 | inactive: 0.033 | inactive: 0 | inactive: -0.007 | inactive: 0.021
C12orf45 (UniProt Q8N5I9) | inactive: -0.015 | inactive: -0.017 | inactive: -0.022 | inactive: 0.009 | inactive: 0.008 | inactive: 0.023 | inactive: -0.243 | inactive: 0.116 | inactive: -0.022 | inactive: -0.026 | inactive: -0.13 | inactive: 0.007 | inactive: 0.004 | inactive: -0.042 | inactive: 0.036 | inactive: 0.05 | inactive: -0.06 | inactive: 0.016 | inactive: 0.01 | inactive: 0.011
C1orf52 (UniProt Q8N6N3) | inactive: 0.004 | inactive: 0.021 | inactive: -0.032 | inactive: 0.035 | inactive: 0.042 | inactive: 0.03 | inactive: -0.066 | inactive: 0.084 | inactive: -0.032 | inactive: -0.026 | inactive: -0.008 | inactive: 0.025 | inactive: 0 | inactive: 0.002 | inactive: 0.037 | inactive: -0.006 | inactive: -0.034 | inactive: -0.027 | inactive: 0.01 | inactive: -0.02
BUD23 isoform 3 (UniProt O43709) | inactive: 0.01 | inactive: 0.017 | inactive: 0.038 | inactive: -0.006 | inactive: -0.029 | inactive: -0.104 | active: -0.341 | inactive: 0.193 | inactive: 0.019 | inactive: 0.017 | inactive: -0.126 | inactive: 0.14 | inactive: 0.026 | inactive: -0.046 | inactive: -0.052 | inactive: -0.017 | inactive: 0.036 | inactive: 0.082 | inactive: 0.085 | inactive: 0.054

Given as tab-separated lines: part of the list above
Target	log2 fold change [1]	log2 fold change [2]	log2 fold change [3]	log2 fold change [4]	log2 fold change [5]	log2 fold change [6]	log2 fold change [7]	log2 fold change [8]	log2 fold change [9]	log2 fold change [10]	log2 fold change [11]	log2 fold change [12]	log2 fold change [13]	log2 fold change [14]	log2 fold change [15]	log2 fold change [16]	log2 fold change [17]	log2 fold change [18]	log2 fold change [19]	log2 fold change [20]
C1orf122 (UniProt Q6ZSJ8)	inactive: 0.006	inactive: 0.005	inactive: -0.158	inactive: 0.148	inactive: 0.037	inactive: 0.033	inactive: -0.028	inactive: 0.038	inactive: 0.005	inactive: -0.051	inactive: 0.023	inactive: 0.017	inactive: 0.034	inactive: 0.089	inactive: 0.062	inactive: 0.115	inactive: -0.028	inactive: -0.033	inactive: -0.02	inactive: 0.004
CAPZA2 (UniProt P47755)	inactive: -0.032	inactive: 0.007	inactive: -0.02	inactive: -0.053	inactive: -0.017	inactive: -0.013	inactive: 0.024	inactive: -0.015	inactive: 0.001	inactive: -0.011	inactive: 0.036	inactive: 0.011	inactive: -0.009	inactive: 0.006	inactive: 0.015	inactive: -0.03	inactive: -0.019	inactive: -0.001	inactive: -0.011	inactive: 0.003
